Source: patent US20150359843

Target: p53 core domain (UniProt P04637)
Experiment: binding assay
Conditions: CITED, unit not given, purified recombinant protein

Sequence | binding result | binding result (construct not explicitly stated)
CGCGCCTGCAAGTCCTGACTTGTCCGCGGC (double strand) [PUMA-BS2 RE (qPCR-tagged fragment)] | binds | –
CTTGGGAACAAGGGCATGAGCTTGTCTGGGCT (double strand) [P2XM RE (qPCR-tagged fragment)] | – | binds more weakly
TAGAGGAAGAAGACTGGGCATGTCTGGGCA (double strand) [p21 3' site RE (qPCR-tagged fragment)] | binds | –

The exact form of at least one protein or probe is not confirmed. The comparison behind a weaker result is the experiment's own reference, which may not be listed here.
